{"source": "paper PMC9133132", "target": "FLAG-tagged MED26 N-terminal domain, wild type (human)", "test": "co-IP; FLAG-immunopurified complexes from baculovirus-infected Sf9 cells expressing the indicated proteins (F-MED26-NTD wt or mut with AF4 or AFF4 wt or mut), western blotting", "note": "These are yes or no findings as the source states them, for the method shown. In cells and extracts the contact can be indirect. Binding can be weak; no strength is given.", "data": [{"binder": "AF4, wild type (protein, UniProt P51825 1-1210) MAAQSSLYNDDRNLLRIREKERRNQEAHQEKEAFPEKIPLFGEPYKTAKGDELSSRIQNMLGNYEEVKEFLSTKSHTHRLDASENRLGKPKYPLIPDKGSSIPSSSFHTSVHHQSIHTPASGPLSVGNISHNPKMAQPRTEPMPSLHAKSCGPPDSQHLTQDRLGQEGFGSSHHKKGDRRADGDHCASVTDSAPERELSPLISLPSPVPPLSPIHSNQQTLPRTQGSSKVHGSSNNSKGYCPAKSPKDLAVKVHDKETPQDSLVAPAQPPSQTFPPPSLPSKSVAMQQKPTAYVRPMDGQDQAPSESPELKPLPEDYRQQTFEKTDLKVPAKAKLTKLKMPSQSVEQTYSNEVHCVEEILKEMTHSWPPPLTAIHTPSTAEPSKFPFPTKDSQHVSSVTQNQKQYDTSSKTHSNSQQGTSSMLEDDLQLSDSEDSDSEQTPEKPPSSSAPPSAPQSLPEPVASAHSSSAESESTSDSDSSSDSESESSSSDSEENEPLETPAPEPEPPTTNKWQLDNWLTKVSQPAAPPEGPRSTEPPRRHPESKGSSDSATSQEHSESKDPPPKSSSKAPRAPPEAPHPGKRSCQKSPAQQEPPQRQTVGTKQPKKPVKASARAGSRTSLQGEREPGLLPYGSRDQTSKDKPKVKTKGRPRAAASNEPKPAVPPSSEKKKHKSSLPAPSKALSGPEPAKDNVEDRTPEHFALVPLTESQGPPHSGSGSRTSGCRQAVVVQEDSRKDRLPLPLRDTKLLSPLRDTPPPQSLMVKITLDLLSRIPQPPGKGSRQRKAEDKQPPAGKKHSSEKRSSDSSSKLAKKRKGEAERDCDNKKIRLEKEIKSQSSSSSSSHKESSKTKPSRPSSQSSKKEMLPPPPVSSSSQKPAKPALKRSRREADTCGQDPPKSASSTKSNHKDSSIPKQRRVEGKGSRSSSEHKGSSGDTANPFPVPSLPNGNSKPGKPQVKFDKQQADLHMREAKKMKQKAELMTDRVGKAFKYLEAVLSFIECGIATESESQSSKSAYSVYSETVDLIKFIMSLKSFSDATAPTQEKIFAVLCMRCQSILNMAMFRCKKDIAIKYSRTLNKHFESSSKVAQAPSPCIASTGTPSPLSPMPSPASSVGSQSSAGSVGSSGVAATISTPVTIQNMTSSYVTITSHVLTAFDLWEQAEALTRKNKEFFARLSTNVCTLALNSSLVDLVHYTRQGFQQLQELTKTP", "values": [{"measurement": "binding", "value": "binds"}]}, {"binder": "AFF4, wild type (protein, UniProt Q9UHB7 1-1163) MNREDRNVLRMKERERRNQEIQQGEDAFPPSSPLFAEPYKVTSKEDKLSSRIQSMLGNYDEMKDFIGDRSIPKLVAIPKPTVPPSADEKSNPNFFEQRHGGSHQSSKWTPVGPAPSTSQSQKRSSGLQSGHSSQRTSAGSSSGTNSSGQRHDRESYNNSGSSSRKKGQHGSEHSKSRSSSPGKPQAVSSLNSSHSRSHGNDHHSKEHQRSKSPRDPDANWDSPSRVPFSSGQHSTQSFPPSLMSKSNSMLQKPTAYVRPMDGQESMEPKLSSEHYSSQSHGNSMTELKPSSKAHLTKLKIPSQPLDASASGDVSCVDEILKEMTHSWPPPLTAIHTPCKTEPSKFPFPTKESQQSNFGTGEQKRYNPSKTSNGHQSKSMLKDDLKLSSSEDSDGEQDCDKTMPRSTPGSNSEPSHHNSEGADNSRDDSSSHSGSESSSGSDSESESSSSDSEANEPSQSASPEPEPPPTNKWQLDNWLNKVNPHKVSPASSVDSNIPSSQGYKKEGREQGTGNSYTDTSGPKETSSATPGRDSKTIQKGSESGRGRQKSPAQSDSTTQRRTVGKKQPKKAEKAAAEEPRGGLKIESETPVDLASSMPSSRHKAATKGSRKPNIKKESKSSPRPTAEKKKYKSTSKSSQKSREIIETDTSSSDSDESESLPPSSQTPKYPESNRTPVKPSSVEEEDSFFRQRMFSPMEEKELLSPLSEPDDRYPLIVKIDLNLLTRIPGKPYKETEPPKGEKKNVPEKHTREAQKQASEKVSNKGKRKHKNEDDNRASESKKPKTEDKNSAGHKPSSNRESSKQSAAKEKDLLPSPAGPVPSKDPKTEHGSRKRTISQSSSLKSSSNSNKETSGSSKNSSSTSKQKKTEGKTSSSSKEVKEKAPSSSSNCPPSAPTLDSSKPRRTKLVFDDRNYSADHYLQEAKKLKHNADALSDRFEKAVYYLDAVVSFIECGNALEKNAQESKSPFPMYSETVDLIKYTMKLKNYLAPDATAADKRLTVLCLRCESLLYLRLFKLKKENALKYSKTLTEHLKNSYNNSQAPSPGLGSKAVGMPSPVSPKLSPGNSGNYSSGASSASASGSSVTIPQKIHQMAASYVQVTSNFLYATEIWDQAEQLSKEQKEFFAELDKVMGPLIFNASIMTDLVRYTRQGLHWLRQDAKLIS", "values": [{"measurement": "binding", "value": "binds"}]}]}
